From patent US20040137000A1
Residue numbers refer to the chain shown, from its start. No constants are given. Whether binding was seen depends on the method and setting. Some binding calls cover weakened binding; strength is not graded here.

B1: deimmunized B4 antibody DIVHv.2/VKv.3 produced by NS0 cells (antibody, human IgG1, V domains shown)
VH: QVQLVQSGAEVKKPGASVKVSCKASGYTFTDYVIHWVRQATGQGLEWIGEIYPGSGSAYSNAKFKDRVTITADKSTNTAYMELRSLRSDDTAVYFCARRGNGTGFAYWGQGTLVTVSS
VL: DIVLTQSPASLAVSPGQRATITCKAGQSVDYDGDSYMNWYQQKPGQPPKLLIYVASNLESGIPSRFSGSGSGTDFTLTINPVEENDTATYYCQQSYKDPLAFGPGTKVEIK
B2: deimmunized B4 antibody DIVHv.3/VKv.3 produced by NS0 cells (antibody, human IgG1, V domains shown)
VH: B1 VH with R38K
VL: B1 VL
B3: deimmunized B4 antibody DIVHv.4/VKv.3 produced by NS0 cells (antibody, human IgG1, V domains shown)
VH: B1 VH with A62S
VL: B1 VL
B4: deimmunized B4 antibody DIVHv.3/VKv.2 produced by NS0 cells (antibody, human IgG1, V domains shown)
VH: B1 VH with R38K
VL: B1 VL with A101T, P104Q
B5: deimmunized B4 antibody DIVHv.4/VKv.1 produced by NS0 cells (antibody, human IgG1, V domains shown)
VH: B1 VH with A62S
VL: B1 VL with P15L, S64A, T78N, N80H, T87A, A101T, P104Q, V108L
B6: deimmunized B4 antibody DIVHv.2/VKv.2 produced by NS0 cells (antibody, human IgG1, V domains shown)
VH: B1 VH
VL: B1 VL with A101T, P104Q
B7: deimmunized B4 antibody DIVHv.3/VKv.1 produced by NS0 cells (antibody, human IgG1, V domains shown)
VH: B1 VH with R38K
VL: B1 VL with P15L, S64A, T78N, N80H, T87A, A101T, P104Q, V108L
B8: deimmunized B4 antibody DIVHv.4/VKv.2 produced by NS0 cells (antibody, human IgG1, V domains shown)
VH: B1 VH with A62S
VL: B1 VL with A101T, P104Q
B9: deimmunized B4 antibody DIVHv.2/VKv.1 produced by NS0 cells (antibody, human IgG1, V domains shown)
VH: B1 VH
VL: B1 VL with P15L, S64A, T78N, N80H, T87A, A101T, P104Q, V108L
B10: chimeric B4 antibody (antibody, human IgG1, V domains shown)
VH: QVQLQQSGPELVKPGASVRMSCKASGYTFTDYVIHWVKQRTGQGLEWIGEIYPGSGSAYSNAKFKDKATLTADKSSNTAYMQLSSLTSEDSAVYFCARRGNGTGFAYWGQGTLVTVSA
VL: DIVLTQSPASLAVSLGQRATISCKAGQSVDYDGDSYMNWYQQKPGQPPKLLIYVASNLESGIPARFSGSGSGTDFTLNIHPVEEEDAATYYCQQSYKDPLTFGAGTKLELK
B11: murine monoclonal antibody B4 (antibody, V domains shown)
VH: B10 VH
VL: B10 VL

target: recombinant soluble CD4 (rsCD4) (UniProt P01730); test: ELISA on rsCD4

| binding | Binder |
| --- | --- |
| binds | B1 |
| binds | B2 |
| binds | B3 |
| binds | B4 |
| binds | B5 |
| binds | B6 |
| binds | B7 |
| binds | B8 |
| binds | B9 |

target: recombinant soluble CD4 (rsCD4) (UniProt P01730); test: ELISA, rsCD4 coated on the plate

| binding | Binder |
| --- | --- |
| binds | B10 |

target: recombinant soluble CD4 (rsCD4) (UniProt P01730); test: ELISA, rsCD4 coated at 0.25 µg/ml, peroxidase anti-mouse

| binding | Binder |
| --- | --- |
| binds | B11 |
